The supplement of paper PMC12823440, “Inhibitors supercharge kinase turnover through native proteolytic circuits” (Nature, 2025)
Counter-ions that a name gives are not always drawn. The list shows a part of the results. The calls rarely recur for the same compound in another form.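 In K562 cells expressing nanoluciferase-fused kinases, luminescence was recorded at 4 h intervals between 2 and 18 h, normalized as percent of control with DMSO at 100% and a positive control at 0%. A significant (2 sigma) signal drop marks a time point as decreased. The authors' rule for a hit is not shown and takes in more than the number of time points.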

Amino acid sequences for entries named in this document (tags omitted). A change or cut given only in a name is not applied to a line headed by its entry.
UniProt O75460: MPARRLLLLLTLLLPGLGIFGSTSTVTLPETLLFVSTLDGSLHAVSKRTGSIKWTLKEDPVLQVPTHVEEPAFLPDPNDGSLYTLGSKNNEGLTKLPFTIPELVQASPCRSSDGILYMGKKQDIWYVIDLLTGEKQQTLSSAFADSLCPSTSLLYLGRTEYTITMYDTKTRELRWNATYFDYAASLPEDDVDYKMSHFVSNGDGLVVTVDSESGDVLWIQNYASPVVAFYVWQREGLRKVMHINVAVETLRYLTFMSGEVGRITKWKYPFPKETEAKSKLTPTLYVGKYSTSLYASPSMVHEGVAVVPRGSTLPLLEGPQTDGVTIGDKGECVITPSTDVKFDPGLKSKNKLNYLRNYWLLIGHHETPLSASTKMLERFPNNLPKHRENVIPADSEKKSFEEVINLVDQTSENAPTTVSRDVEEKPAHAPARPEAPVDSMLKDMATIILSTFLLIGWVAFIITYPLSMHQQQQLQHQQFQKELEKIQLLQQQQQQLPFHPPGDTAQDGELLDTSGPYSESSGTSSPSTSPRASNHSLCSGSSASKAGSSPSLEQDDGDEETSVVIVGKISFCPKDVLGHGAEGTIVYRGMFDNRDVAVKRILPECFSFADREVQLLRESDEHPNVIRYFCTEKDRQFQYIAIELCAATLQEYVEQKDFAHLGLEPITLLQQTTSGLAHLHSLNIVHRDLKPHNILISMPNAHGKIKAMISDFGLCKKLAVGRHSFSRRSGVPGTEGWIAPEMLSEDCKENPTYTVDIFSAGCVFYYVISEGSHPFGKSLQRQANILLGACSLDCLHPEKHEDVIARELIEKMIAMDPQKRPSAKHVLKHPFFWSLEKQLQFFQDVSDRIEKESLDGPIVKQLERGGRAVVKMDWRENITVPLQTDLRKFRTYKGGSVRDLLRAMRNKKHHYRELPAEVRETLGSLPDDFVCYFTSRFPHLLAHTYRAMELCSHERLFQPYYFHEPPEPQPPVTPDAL
UniProt P11362, whole entry, looked up: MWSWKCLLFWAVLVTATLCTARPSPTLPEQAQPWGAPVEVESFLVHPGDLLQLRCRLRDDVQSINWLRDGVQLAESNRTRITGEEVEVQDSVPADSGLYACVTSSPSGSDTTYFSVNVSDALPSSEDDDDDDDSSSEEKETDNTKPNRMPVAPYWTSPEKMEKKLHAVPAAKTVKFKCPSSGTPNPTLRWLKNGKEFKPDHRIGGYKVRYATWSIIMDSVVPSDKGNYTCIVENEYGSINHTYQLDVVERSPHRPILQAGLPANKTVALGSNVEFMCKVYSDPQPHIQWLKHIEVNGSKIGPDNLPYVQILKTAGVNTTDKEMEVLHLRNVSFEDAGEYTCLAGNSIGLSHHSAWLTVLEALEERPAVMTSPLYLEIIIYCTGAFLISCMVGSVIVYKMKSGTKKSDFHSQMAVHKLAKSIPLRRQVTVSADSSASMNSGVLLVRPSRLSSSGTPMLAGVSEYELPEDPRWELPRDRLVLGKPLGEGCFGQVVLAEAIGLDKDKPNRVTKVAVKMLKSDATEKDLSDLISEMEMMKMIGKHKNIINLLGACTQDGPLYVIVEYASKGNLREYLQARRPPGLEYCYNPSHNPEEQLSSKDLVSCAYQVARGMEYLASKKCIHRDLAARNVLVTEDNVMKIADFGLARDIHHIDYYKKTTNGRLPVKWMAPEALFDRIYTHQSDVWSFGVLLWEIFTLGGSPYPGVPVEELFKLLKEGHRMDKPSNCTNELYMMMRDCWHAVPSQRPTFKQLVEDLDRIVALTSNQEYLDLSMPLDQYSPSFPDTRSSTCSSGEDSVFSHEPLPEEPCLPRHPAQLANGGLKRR
UniProt P49840: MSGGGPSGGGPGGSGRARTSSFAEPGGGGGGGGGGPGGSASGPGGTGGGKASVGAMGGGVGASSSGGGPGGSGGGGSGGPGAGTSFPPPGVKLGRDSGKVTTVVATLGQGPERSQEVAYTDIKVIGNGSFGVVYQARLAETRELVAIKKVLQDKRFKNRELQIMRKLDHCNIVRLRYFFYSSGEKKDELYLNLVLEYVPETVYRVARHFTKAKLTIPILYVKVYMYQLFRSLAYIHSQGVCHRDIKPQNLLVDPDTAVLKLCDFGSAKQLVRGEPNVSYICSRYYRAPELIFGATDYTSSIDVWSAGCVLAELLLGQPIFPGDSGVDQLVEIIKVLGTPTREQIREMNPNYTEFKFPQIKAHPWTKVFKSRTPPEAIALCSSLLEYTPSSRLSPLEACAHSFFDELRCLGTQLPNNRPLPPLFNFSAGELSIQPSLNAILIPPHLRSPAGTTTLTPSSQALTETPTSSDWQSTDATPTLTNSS
UniProt P23458: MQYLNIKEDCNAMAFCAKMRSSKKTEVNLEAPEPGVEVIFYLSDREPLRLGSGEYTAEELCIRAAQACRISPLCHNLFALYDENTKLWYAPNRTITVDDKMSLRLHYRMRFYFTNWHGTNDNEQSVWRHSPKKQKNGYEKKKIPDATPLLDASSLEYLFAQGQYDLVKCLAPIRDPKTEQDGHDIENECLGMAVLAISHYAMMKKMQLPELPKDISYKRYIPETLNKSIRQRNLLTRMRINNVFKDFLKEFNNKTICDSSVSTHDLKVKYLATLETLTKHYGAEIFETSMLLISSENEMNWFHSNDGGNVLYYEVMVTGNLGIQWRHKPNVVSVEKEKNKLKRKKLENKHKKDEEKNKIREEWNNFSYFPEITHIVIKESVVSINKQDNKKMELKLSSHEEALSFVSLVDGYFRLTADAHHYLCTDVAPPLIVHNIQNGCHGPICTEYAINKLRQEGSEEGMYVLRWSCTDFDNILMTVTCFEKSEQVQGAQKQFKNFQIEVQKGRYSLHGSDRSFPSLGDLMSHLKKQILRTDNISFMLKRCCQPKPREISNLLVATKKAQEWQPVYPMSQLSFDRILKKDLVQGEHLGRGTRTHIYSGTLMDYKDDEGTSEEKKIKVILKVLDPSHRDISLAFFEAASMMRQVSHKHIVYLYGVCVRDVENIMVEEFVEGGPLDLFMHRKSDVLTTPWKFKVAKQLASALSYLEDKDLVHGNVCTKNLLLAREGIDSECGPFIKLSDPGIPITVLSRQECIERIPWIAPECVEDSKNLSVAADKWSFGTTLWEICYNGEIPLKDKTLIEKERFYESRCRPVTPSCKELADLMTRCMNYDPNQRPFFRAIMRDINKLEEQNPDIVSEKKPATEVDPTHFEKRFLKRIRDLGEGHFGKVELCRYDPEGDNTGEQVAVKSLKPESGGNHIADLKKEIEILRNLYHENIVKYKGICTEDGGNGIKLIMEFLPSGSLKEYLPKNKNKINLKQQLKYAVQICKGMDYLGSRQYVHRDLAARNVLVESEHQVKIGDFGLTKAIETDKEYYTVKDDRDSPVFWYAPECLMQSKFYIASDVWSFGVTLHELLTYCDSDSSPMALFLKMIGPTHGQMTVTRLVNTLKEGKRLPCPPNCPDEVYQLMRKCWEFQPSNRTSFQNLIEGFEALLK
UniProt P06239: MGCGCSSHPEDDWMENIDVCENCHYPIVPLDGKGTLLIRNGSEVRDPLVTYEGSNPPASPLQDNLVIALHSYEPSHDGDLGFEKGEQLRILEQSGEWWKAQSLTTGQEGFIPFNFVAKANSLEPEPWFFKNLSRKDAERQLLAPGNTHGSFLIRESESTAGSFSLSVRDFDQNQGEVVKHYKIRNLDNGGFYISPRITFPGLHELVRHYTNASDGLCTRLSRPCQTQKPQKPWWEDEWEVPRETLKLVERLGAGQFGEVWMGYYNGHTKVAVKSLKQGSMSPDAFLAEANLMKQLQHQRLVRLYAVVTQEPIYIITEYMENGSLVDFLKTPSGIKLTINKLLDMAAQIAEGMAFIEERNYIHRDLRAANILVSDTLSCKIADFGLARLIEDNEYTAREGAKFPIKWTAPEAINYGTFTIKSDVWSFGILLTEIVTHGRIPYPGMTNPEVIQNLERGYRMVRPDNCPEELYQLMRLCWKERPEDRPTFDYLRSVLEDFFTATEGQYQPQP
UniProt P53667: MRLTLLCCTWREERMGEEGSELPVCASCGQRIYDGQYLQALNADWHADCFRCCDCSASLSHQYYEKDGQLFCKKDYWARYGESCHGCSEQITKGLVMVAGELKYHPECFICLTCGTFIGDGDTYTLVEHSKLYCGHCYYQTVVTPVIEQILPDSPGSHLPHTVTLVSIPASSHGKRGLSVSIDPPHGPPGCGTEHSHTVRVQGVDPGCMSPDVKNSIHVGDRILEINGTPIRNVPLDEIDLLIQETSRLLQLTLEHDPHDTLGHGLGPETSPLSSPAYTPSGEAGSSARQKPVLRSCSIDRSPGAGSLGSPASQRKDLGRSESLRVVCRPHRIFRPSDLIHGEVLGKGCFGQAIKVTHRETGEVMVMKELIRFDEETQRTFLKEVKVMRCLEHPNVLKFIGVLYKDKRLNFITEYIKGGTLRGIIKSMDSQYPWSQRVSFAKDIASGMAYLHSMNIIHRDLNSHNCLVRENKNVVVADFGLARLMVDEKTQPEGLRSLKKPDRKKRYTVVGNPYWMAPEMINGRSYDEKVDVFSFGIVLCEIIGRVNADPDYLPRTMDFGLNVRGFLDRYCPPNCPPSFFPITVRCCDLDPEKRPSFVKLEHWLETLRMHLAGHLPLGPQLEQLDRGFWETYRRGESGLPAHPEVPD
UniProt P53671: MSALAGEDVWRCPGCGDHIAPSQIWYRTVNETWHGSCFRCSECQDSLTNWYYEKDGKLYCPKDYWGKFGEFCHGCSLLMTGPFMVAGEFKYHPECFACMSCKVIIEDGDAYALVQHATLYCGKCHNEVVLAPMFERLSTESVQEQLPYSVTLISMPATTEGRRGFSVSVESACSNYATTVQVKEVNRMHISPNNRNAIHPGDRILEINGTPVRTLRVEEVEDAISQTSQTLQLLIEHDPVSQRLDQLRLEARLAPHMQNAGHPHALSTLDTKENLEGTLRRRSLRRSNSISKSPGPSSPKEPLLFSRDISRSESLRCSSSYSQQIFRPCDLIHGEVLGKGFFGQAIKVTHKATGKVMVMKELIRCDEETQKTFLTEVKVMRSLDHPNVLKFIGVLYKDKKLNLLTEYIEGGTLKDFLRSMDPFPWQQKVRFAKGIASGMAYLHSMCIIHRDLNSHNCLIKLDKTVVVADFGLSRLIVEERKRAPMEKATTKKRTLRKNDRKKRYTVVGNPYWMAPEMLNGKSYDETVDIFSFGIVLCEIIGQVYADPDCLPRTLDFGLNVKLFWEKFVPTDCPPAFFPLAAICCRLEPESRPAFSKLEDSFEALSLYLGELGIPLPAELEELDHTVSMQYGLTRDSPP
UniProt P07948: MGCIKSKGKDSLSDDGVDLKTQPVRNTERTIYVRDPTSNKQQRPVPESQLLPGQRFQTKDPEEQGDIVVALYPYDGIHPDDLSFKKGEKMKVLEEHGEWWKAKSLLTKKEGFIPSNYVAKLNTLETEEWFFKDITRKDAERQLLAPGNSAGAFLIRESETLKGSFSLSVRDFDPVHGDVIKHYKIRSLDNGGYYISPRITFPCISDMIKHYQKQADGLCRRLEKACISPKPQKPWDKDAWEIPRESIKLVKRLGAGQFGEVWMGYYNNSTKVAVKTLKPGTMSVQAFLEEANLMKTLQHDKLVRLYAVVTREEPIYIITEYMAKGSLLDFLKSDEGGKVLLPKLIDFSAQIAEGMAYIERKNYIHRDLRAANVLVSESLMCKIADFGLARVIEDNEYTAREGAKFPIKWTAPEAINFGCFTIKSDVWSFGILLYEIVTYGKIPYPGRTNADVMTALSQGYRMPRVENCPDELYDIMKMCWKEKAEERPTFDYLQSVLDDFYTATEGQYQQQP
UniProt Q12851: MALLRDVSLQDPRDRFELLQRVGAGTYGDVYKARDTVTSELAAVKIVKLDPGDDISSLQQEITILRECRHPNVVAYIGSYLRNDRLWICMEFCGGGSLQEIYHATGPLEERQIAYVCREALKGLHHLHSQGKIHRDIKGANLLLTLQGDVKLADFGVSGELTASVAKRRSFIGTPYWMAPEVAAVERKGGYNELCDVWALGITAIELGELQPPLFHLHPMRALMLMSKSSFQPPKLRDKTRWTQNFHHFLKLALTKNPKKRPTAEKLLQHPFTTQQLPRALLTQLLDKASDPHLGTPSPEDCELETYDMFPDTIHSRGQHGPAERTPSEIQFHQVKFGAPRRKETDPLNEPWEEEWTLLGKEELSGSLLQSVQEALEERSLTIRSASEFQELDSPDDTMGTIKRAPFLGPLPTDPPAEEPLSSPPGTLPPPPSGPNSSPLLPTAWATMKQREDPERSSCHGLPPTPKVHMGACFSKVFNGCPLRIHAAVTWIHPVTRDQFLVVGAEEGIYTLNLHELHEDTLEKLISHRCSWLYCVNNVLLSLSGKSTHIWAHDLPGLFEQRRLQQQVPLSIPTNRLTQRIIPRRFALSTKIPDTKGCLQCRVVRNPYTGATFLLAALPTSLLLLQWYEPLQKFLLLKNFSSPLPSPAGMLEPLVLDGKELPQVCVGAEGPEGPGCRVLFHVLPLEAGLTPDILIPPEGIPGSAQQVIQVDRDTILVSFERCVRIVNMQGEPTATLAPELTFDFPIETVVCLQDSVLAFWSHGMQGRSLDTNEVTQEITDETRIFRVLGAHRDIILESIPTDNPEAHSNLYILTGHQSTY

Key:
Assay in all cases: kinase-Nluc reporter destabilization hit call (1 = scored as downregulated) (binary); higher = compound decreases kinase abundance
Settings in all cases: K562, 2-18 h
ERN1 = ERN1 (UniProt O75460)
FGFR1 = FGFR1 (UniProt P11362)
FGFR2 = FGFR2 (UniProt P21802)
FGFR3 = FGFR3 (UniProt P22607)
FGR = FGR (UniProt P09769)
FLT3 = FLT3 (UniProt P36888)
FYN = FYN (UniProt P06241)
GSK3A = GSK3A (UniProt P49840)
HER2 = HER2 (UniProt P04626)
INSRR = INSRR (UniProt P14616)
IRAK3 = IRAK3 (UniProt Q9Y616)
JAK1 = JAK1 (UniProt P23458)
LCK = LCK (UniProt P06239)
LIMK1 = LIMK1 (UniProt P53667)
LIMK2 = LIMK2 (UniProt P53671)
LMTK2 = LMTK2 (UniProt Q8IWU2)
LYN = LYN (UniProt P07948)
MAP2K1 = MAP2K1 (UniProt Q02750)
MAP2K2 = MAP2K2 (UniProt P36507)
MAP4K2 = MAP4K2 (UniProt Q12851)

Row | SMILES | kinase-Nluc reporter destabilization hit call (ERN1; 10 µM) | kinase-Nluc reporter destabilization hit call (FGFR1; 10 µM) | kinase-Nluc reporter destabilization hit call (FGFR2; 10 µM) | kinase-Nluc reporter destabilization hit call (FGFR3; 10 µM) | kinase-Nluc reporter destabilization hit call (FGR; 10 µM) | kinase-Nluc reporter destabilization hit call (FLT3; 10 µM) | kinase-Nluc reporter destabilization hit call (FYN; 10 µM) | kinase-Nluc reporter destabilization hit call (GSK3A; 10 µM) | kinase-Nluc reporter destabilization hit call (HER2; 10 µM) | kinase-Nluc reporter destabilization hit call (INSRR; 10 µM) | kinase-Nluc reporter destabilization hit call (IRAK3; 10 µM) | kinase-Nluc reporter destabilization hit call (JAK1; 10 µM) | kinase-Nluc reporter destabilization hit call (LCK; 10 µM) | kinase-Nluc reporter destabilization hit call (LIMK1; 10 µM) | kinase-Nluc reporter destabilization hit call (LIMK2; 10 µM) | kinase-Nluc reporter destabilization hit call (LMTK2; 10 µM) | kinase-Nluc reporter destabilization hit call (LYN; 10 µM) | kinase-Nluc reporter destabilization hit call (MAP2K1; 10 µM) | kinase-Nluc reporter destabilization hit call (MAP2K2; 10 µM) | kinase-Nluc reporter destabilization hit call (MAP4K2; 10 µM) | kinase-Nluc reporter destabilization hit call (ERN1; 2.5 µM) | kinase-Nluc reporter destabilization hit call (FGFR1; 2.5 µM) | kinase-Nluc reporter destabilization hit call (FGFR2; 2.5 µM) | kinase-Nluc reporter destabilization hit call (FGFR3; 2.5 µM) | kinase-Nluc reporter destabilization hit call (FGR; 2.5 µM) | kinase-Nluc reporter destabilization hit call (FLT3; 2.5 µM) | kinase-Nluc reporter destabilization hit call (FYN; 2.5 µM) | kinase-Nluc reporter destabilization hit call (GSK3A; 2.5 µM) | kinase-Nluc reporter destabilization hit call (HER2; 2.5 µM) | kinase-Nluc reporter destabilization hit call (INSRR; 2.5 µM) | kinase-Nluc reporter destabilization hit call (IRAK3; 2.5 µM) | kinase-Nluc reporter destabilization hit call (JAK1; 2.5 µM) | kinase-Nluc reporter destabilization hit call (LCK; 2.5 µM) | kinase-Nluc reporter destabilization hit call (LIMK1; 2.5 µM) | kinase-Nluc reporter destabilization hit call (LIMK2; 2.5 µM) | kinase-Nluc reporter destabilization hit call (LMTK2; 2.5 µM) | kinase-Nluc reporter destabilization hit call (LYN; 2.5 µM) | kinase-Nluc reporter destabilization hit call (MAP2K1; 2.5 µM) | kinase-Nluc reporter destabilization hit call (MAP2K2; 2.5 µM) | kinase-Nluc reporter destabilization hit call (MAP4K2; 2.5 µM)
1 | CNc1ncc2cc(-c3ccc(-c4cccc(C)n4)cc3Cl)c(=O)n(C[C@H]3OC[C@H](N)CO3)c2n1 | inactive: 0 | inactive: 0 | inactive: 0 | inactive: 0 | inactive: 0 | inactive: 0 | inactive: 0 | inactive: 0 | inactive: 0 | inactive: 0 | inactive: 0 | inactive: 0 | inactive: 0 | inactive: 0 | inactive: 0 | inactive: 0 | inactive: 0 | inactive: 0 | inactive: 0 | inactive: 0 |  |  |  |  |  |  |  |  |  |  |  |  |  |  |  |  |  |  |  | 
2 | COc1cc2c(Oc3ccc4[nH]c(C)cc4c3F)ncnc2cc1OCCCN1CCCC1 [Cediranib (maleate)] |  |  |  |  |  |  |  |  |  |  |  |  |  |  |  |  |  |  |  |  | inactive: 0 | inactive: 0 | inactive: 0 | inactive: 0 | inactive: 0 | inactive: 0 | inactive: 0 | inactive: 0 | inactive: 0 | inactive: 0 | inactive: 0 | inactive: 0 | inactive: 0 | inactive: 0 | inactive: 0 | inactive: 0 | inactive: 0 | inactive: 0 | inactive: 0 | inactive: 0
3 | O=C(c1ccc(F)c(F)c1Nc1ccc(I)cc1F)N1CC(O)([C@@H]2CCCCN2)C1 [Cobimetinib] | inactive: 0 | inactive: 0 | inactive: 0 | inactive: 0 | inactive: 0 | inactive: 0 | inactive: 0 | inactive: 0 | inactive: 0 | inactive: 0 | inactive: 0 | inactive: 0 | inactive: 0 | inactive: 0 | inactive: 0 | inactive: 0 | inactive: 0 | inactive: 0 | inactive: 0 | inactive: 0 |  |  |  |  |  |  |  |  |  |  |  |  |  |  |  |  |  |  |  | 
4 | CCS(=O)(=O)N1CCN(c2ccc(Nc3ncc(C(N)=O)c(NC4CC4)n3)cc2)CC1 [Cerdulatinib (hydrochloride)] | inactive: 0 | inactive: 0 | inactive: 0 | inactive: 0 | inactive: 0 | inactive: 0 | inactive: 0 | inactive: 0 | inactive: 0 | inactive: 0 | inactive: 0 | inactive: 0 | inactive: 0 | inactive: 0 | inactive: 0 | inactive: 0 | inactive: 0 | inactive: 0 | inactive: 0 | inactive: 0 |  |  |  |  |  |  |  |  |  |  |  |  |  |  |  |  |  |  |  | 
5 | COc1cc2c(-c3cnn4cc(N5CCC(N6CCN(C)CC6)CC5)cnc34)ccnc2cc1F [ALK2-IN-4 (succinate)] | inactive: 0 | inactive: 0 | inactive: 0 | inactive: 0 | inactive: 0 | inactive: 0 | inactive: 0 | inactive: 0 | inactive: 0 | inactive: 0 | inactive: 0 | inactive: 0 | inactive: 0 | inactive: 0 | inactive: 0 | inactive: 0 | inactive: 0 | inactive: 0 | inactive: 0 | inactive: 0 |  |  |  |  |  |  |  |  |  |  |  |  |  |  |  |  |  |  |  | 
6 | COc1cc(/C=C/C(=O)O)ccc1O [Ferulic acid] | inactive: 0 | inactive: 0 | inactive: 0 | inactive: 0 | inactive: 0 | inactive: 0 | inactive: 0 | inactive: 0 | inactive: 0 | inactive: 0 | inactive: 0 | inactive: 0 | inactive: 0 | inactive: 0 | inactive: 0 | inactive: 0 | inactive: 0 | inactive: 0 | inactive: 0 | inactive: 0 |  |  |  |  |  |  |  |  |  |  |  |  |  |  |  |  |  |  |  | 
7 | C#Cc1cccc(Nc2ncnc3cc(OCCOC)c(OCCO)cc23)c1 [Desmethyl Erlotinib] | inactive: 0 | inactive: 0 | inactive: 0 | inactive: 0 | inactive: 0 | inactive: 0 | inactive: 0 | inactive: 0 | inactive: 0 | inactive: 0 | inactive: 0 | inactive: 0 | inactive: 0 | inactive: 0 | inactive: 0 | inactive: 0 | inactive: 0 | inactive: 0 | inactive: 0 | inactive: 0 |  |  |  |  |  |  |  |  |  |  |  |  |  |  |  |  |  |  |  | 
8 | CN(C)C(=O)c1cc2cnc(Nc3ccc(N4CCNCC4)cn3)nc2n1C1CCCC1 [Ribociclib succinate hydrate] |  |  |  |  |  |  |  |  |  |  |  |  |  |  |  |  |  |  |  |  | inactive: 0 | inactive: 0 | inactive: 0 | inactive: 0 | inactive: 0 | inactive: 0 | inactive: 0 | inactive: 0 | inactive: 0 | inactive: 0 | inactive: 0 | inactive: 0 | inactive: 0 | inactive: 0 | inactive: 0 | inactive: 0 | inactive: 0 | inactive: 0 | inactive: 0 | inactive: 0
9 | CCS(=O)(=O)N1CCN(c2ccc(Nc3ncc(C(N)=O)c(NC4CC4)n3)cc2)CC1 [Cerdulatinib] | inactive: 0 | inactive: 0 | inactive: 0 | inactive: 0 | inactive: 0 | inactive: 0 | inactive: 0 | inactive: 0 | inactive: 0 | inactive: 0 | inactive: 0 | inactive: 0 | inactive: 0 | inactive: 0 | inactive: 0 | active: 1 | inactive: 0 | inactive: 0 | inactive: 0 | inactive: 0 |  |  |  |  |  |  |  |  |  |  |  |  |  |  |  |  |  |  |  | 

Looked up above:
COc1cc2c(Oc3ccc4[nH]c(C)cc4c3F)ncnc2cc1OCCCN1CCCC1 [Cediranib (maleate)] | kinase-Nluc reporter destabilization hit call (MAP2K1; 2.5 µM): inactive: 0
CCS(=O)(=O)N1CCN(c2ccc(Nc3ncc(C(N)=O)c(NC4CC4)n3)cc2)CC1 [Cerdulatinib (hydrochloride)] | kinase-Nluc reporter destabilization hit call (FGFR3; 10 µM): inactive: 0
